Patent US8815527 (Stanford University, dated 2014)
No constants are given. Whether binding was seen depends on the method and setting. Some binding calls cover weakened binding; strength is not graded here.

Tests used:
[1] = target: T1, β3 integrin, surface protein of NIH3T3-derived cells (UniProt O54890); assay: affinity chromatography and immunoblot (figure legend)
T1 sequence (surface biotinylated (sulfo-NHS-LC-Biotin), looked up): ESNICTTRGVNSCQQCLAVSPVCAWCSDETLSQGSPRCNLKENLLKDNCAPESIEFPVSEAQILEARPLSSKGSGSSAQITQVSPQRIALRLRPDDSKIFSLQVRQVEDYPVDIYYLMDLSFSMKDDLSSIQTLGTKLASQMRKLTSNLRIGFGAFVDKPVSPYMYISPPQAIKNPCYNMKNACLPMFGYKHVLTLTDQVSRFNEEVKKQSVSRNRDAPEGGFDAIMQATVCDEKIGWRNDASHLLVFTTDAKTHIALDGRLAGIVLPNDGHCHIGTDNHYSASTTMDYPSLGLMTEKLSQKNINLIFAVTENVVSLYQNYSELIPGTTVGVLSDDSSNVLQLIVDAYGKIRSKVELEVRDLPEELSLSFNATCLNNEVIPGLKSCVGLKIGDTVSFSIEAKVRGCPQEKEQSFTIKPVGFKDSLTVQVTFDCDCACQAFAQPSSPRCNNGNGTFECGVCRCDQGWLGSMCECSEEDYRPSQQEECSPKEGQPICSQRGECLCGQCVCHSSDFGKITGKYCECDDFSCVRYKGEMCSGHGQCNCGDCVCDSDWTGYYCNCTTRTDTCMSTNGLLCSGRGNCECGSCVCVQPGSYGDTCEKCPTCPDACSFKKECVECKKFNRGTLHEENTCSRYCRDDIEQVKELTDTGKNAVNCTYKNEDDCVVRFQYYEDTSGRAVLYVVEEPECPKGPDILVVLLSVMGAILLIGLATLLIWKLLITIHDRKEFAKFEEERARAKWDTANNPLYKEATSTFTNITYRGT

[2] = target: T1, β3 integrin, surface protein of NIH3T3-derived cells; assay: two-column affinity chromatography (ICAM-2 solid support, streptavidin-agarose) and immunoblot
[3] = target: T1, β3 integrin, surface protein of NIH3T3-derived cells; assay: final eluates of the ICAM-2 solid support and the streptavidin-agarose column (surface-biotinylated cells) immunoblotted with an anti-β3 monoclonal antibody

Measured: binding

B1: soluble human ICAM-2 protein, biochemically purified from retrovirally transduced NIH3T3 cells (ligand, UniProt P13598 25-275, looked up)
chain: KVFEVHVRPKKLAVEPKGSLEVNCSTTCNQPEVGGLETSLDKILLDEQAQWKHYLVSNISHDTVLQCHFTCSGKQESMNSNVSVYQPPRQVILTLQPTLVAVGKSFTIECRVPTVEPLDSLTLFLFRGNETLHYETFGKAAPAPQEATATFNSTADREDGHRNFSCLAVLDLMSRGGNIFHKHSAPKMLEIYEPVSDSQMVIIVTVVSVLLSLFVTSVLLCFIFGQHLRQQRMGTYGVRAAWRRLPQAFRP
modifications: FITC (NHS-fluorescein) conjugate where used as ICAM-2-FITC, sites not stated
notes: mature; also called sICAM-2; soluble ICAM-2
binds: all assays above
